This passage reports binding results from doi:10.1101/776690.

In experiment [1] the target is recombinant murine adiponectin with a V5-6xHis C-terminal tag (murine) (UniProt Q60994). Description: SEC.
Experiment [2] has the same target. The experiment is described as follows: non-reducing denaturing SDS-PAGE with Western blot. (A western blot detects proteins with antibodies after separation by electrophoresis.)
Experiment [3] concerns the target T1, C39S adiponectin (murine), Q60994.
T1 chain: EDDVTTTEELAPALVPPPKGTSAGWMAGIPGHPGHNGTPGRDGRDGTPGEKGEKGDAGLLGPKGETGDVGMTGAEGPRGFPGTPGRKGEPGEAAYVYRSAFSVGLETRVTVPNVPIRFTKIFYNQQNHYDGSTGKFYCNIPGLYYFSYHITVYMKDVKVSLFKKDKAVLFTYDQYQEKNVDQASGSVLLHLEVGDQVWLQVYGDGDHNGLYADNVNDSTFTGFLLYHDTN
The experiment is described as follows: non-reducing denaturing SDS-PAGE with Western blot. The note with it: remark: other sources report otherwise.

These are yes or no findings as the source states them, for the method shown. Some binding calls cover weakened binding; strength is not graded here. For part of these data: Where a sequence is shown, tags or fusion partners need not be part of it.

B1: recombinant murine adiponectin with a V5-6xHis C-terminal tag (protein, UniProt Q60994 18-247)
chain: EDDVTTTEELAPALVPPPKGTCAGWMAGIPGHPGHNGTPGRDGRDGTPGEKGEKGDAGLLGPKGETGDVGMTGAEGPRGFPGTPGRKGEPGEAAYVYRSAFSVGLETRVTVPNVPIRFTKIFYNQQNHYDGSTGKFYCNIPGLYYFSYHITVYMKDVKVSLFKKDKAVLFTYDQYQEKNVDQASGSVLLHLEVGDQVWLQVYGDGDHNGLYADNVNDSTFTGFLLYHDTN
Take B1: the binding result in experiment [1] and in experiment [2] was “binds” in each case.

B2: C39S adiponectin, Q60994 18-247 (protein)
chain: EDDVTTTEELAPALVPPPKGTSAGWMAGIPGHPGHNGTPGRDGRDGTPGEKGEKGDAGLLGPKGETGDVGMTGAEGPRGFPGTPGRKGEPGEAAYVYRSAFSVGLETRVTVPNVPIRFTKIFYNQQNHYDGSTGKFYCNIPGLYYFSYHITVYMKDVKVSLFKKDKAVLFTYDQYQEKNVDQASGSVLLHLEVGDQVWLQVYGDGDHNGLYADNVNDSTFTGFLLYHDTN
B2: the binding entry in experiment [3] is “no binding”.
